{
  "sequences": {"note": "Sequences of proteins named here, by UniProt entry; tags and fusion partners are left off. A change or cut given only in a name is not applied to a line headed by its entry.", "UniProt P13807": "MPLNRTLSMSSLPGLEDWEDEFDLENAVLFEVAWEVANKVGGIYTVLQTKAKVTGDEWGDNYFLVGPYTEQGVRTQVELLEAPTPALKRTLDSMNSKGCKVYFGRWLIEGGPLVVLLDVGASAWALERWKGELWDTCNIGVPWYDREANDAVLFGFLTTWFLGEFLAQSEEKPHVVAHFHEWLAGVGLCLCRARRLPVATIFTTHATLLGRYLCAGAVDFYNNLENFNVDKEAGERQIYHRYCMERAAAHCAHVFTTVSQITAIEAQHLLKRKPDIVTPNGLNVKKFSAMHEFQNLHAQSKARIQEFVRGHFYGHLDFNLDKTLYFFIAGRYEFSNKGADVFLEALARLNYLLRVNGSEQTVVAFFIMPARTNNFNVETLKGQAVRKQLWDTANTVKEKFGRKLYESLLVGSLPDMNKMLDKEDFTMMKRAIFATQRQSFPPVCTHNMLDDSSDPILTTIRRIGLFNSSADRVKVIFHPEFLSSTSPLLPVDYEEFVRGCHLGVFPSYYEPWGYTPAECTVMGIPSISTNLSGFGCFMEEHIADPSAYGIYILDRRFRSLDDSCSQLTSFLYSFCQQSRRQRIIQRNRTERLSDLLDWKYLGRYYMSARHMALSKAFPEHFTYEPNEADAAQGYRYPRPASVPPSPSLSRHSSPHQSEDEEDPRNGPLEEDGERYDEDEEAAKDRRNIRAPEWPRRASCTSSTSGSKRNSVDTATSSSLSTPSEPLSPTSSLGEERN", "UniProt Q8N3Z3": "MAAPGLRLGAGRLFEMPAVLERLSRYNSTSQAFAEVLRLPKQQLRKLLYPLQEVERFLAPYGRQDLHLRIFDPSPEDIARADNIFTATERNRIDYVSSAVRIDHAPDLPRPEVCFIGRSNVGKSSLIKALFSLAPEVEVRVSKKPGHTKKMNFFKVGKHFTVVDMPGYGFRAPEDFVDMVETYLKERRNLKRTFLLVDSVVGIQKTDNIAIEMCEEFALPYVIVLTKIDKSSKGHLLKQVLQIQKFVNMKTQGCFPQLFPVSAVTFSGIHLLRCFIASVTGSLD", "UniProt Q92664": "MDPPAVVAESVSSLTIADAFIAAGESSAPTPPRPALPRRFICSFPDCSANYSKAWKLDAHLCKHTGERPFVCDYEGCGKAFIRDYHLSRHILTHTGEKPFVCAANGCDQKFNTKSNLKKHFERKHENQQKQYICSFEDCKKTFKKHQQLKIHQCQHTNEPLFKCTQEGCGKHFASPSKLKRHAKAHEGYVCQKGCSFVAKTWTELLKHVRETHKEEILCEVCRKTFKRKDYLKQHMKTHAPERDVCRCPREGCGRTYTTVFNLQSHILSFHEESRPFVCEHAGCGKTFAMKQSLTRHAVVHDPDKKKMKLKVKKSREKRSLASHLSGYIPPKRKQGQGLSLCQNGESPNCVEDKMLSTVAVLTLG", "UniProt P21266": "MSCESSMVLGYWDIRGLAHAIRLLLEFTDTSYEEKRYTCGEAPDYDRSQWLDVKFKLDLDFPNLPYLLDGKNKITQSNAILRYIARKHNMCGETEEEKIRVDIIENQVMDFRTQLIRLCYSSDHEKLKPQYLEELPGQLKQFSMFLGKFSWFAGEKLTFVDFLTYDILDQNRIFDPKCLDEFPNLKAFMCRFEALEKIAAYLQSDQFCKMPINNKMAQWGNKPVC", "UniProt Q9Y5Q9": "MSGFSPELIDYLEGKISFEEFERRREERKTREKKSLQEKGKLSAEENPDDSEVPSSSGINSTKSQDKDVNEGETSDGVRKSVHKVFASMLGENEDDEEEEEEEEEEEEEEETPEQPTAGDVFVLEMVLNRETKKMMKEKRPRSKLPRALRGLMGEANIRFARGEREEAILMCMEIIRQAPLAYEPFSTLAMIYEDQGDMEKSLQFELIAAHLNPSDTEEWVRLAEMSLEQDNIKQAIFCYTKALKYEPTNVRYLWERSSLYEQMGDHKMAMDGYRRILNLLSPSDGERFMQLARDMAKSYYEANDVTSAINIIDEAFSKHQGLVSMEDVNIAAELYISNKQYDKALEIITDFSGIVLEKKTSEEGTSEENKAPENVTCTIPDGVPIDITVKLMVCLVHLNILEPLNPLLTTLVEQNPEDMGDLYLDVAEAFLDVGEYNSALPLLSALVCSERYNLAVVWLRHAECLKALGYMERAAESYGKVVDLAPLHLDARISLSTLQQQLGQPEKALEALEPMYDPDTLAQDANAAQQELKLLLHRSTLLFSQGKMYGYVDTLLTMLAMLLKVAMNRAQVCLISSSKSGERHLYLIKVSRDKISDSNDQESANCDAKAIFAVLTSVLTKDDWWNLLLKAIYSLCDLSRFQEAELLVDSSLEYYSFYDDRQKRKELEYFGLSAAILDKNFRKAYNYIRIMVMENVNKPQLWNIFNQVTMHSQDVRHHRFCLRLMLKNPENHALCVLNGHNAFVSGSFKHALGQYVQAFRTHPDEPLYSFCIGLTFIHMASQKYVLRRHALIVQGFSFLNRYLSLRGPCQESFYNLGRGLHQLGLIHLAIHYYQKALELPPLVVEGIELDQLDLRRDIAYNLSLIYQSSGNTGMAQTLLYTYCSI", "UniProt P07203, whole entry, looked up": "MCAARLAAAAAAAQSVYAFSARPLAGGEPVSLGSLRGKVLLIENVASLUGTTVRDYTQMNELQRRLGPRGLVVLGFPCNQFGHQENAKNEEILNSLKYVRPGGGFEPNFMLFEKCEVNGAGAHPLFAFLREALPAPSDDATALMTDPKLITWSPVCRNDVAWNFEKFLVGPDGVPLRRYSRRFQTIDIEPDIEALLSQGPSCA", "UniProt Q9Y5Q8": "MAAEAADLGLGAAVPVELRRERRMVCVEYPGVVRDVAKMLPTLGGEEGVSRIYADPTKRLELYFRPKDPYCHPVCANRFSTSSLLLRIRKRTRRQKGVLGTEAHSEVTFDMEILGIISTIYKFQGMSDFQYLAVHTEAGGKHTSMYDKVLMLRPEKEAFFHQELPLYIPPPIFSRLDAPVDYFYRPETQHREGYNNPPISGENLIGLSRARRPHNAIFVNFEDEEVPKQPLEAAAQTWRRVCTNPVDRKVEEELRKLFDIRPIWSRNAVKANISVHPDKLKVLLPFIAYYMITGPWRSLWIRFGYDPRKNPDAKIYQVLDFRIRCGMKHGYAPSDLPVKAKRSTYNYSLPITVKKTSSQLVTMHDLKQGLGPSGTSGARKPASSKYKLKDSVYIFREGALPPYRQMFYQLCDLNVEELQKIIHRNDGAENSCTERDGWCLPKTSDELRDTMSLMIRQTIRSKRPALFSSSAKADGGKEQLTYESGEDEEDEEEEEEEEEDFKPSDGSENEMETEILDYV", "UniProt P25098": "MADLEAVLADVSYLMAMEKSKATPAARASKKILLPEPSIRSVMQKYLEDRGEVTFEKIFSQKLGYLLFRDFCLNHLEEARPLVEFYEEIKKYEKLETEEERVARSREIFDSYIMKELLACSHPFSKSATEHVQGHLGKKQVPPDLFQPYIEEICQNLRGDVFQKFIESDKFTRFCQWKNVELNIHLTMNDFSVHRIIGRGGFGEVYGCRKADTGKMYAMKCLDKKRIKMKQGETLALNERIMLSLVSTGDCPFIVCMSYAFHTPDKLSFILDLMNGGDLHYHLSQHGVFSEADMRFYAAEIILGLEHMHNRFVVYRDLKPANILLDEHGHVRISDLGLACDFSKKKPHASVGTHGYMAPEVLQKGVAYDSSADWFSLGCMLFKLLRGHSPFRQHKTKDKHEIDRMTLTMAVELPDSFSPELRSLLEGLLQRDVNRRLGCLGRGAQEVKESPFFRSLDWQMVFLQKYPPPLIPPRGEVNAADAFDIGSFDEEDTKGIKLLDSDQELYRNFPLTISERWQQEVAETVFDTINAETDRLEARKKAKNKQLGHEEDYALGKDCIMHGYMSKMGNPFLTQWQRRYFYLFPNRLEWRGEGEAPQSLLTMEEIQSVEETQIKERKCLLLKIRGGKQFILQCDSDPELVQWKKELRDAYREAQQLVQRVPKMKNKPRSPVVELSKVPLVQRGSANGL", "UniProt Q9P0R6": "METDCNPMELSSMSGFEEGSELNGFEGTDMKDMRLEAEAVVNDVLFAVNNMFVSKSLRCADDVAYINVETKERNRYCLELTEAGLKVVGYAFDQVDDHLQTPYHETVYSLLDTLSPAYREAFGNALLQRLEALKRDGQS", "UniProt P40939": "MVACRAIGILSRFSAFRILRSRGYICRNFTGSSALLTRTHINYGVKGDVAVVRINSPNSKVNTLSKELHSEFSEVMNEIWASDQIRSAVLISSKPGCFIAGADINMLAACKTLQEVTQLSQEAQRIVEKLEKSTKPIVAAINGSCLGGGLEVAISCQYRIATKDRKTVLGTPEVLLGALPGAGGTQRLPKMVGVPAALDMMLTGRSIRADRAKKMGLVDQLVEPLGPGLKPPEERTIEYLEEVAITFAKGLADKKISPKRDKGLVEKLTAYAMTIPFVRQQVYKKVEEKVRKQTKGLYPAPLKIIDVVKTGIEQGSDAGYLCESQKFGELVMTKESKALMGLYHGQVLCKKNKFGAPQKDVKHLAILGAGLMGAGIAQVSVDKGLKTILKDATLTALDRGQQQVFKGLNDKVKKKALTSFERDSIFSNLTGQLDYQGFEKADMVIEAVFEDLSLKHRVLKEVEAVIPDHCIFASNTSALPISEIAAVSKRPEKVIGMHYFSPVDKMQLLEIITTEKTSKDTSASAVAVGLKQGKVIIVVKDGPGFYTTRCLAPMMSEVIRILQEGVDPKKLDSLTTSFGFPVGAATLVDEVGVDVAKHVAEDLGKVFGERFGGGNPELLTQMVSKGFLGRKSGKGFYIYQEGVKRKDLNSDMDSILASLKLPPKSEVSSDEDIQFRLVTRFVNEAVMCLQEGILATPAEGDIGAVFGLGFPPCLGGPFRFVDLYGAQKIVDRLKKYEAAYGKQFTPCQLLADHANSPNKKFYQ", "UniProt P57764": "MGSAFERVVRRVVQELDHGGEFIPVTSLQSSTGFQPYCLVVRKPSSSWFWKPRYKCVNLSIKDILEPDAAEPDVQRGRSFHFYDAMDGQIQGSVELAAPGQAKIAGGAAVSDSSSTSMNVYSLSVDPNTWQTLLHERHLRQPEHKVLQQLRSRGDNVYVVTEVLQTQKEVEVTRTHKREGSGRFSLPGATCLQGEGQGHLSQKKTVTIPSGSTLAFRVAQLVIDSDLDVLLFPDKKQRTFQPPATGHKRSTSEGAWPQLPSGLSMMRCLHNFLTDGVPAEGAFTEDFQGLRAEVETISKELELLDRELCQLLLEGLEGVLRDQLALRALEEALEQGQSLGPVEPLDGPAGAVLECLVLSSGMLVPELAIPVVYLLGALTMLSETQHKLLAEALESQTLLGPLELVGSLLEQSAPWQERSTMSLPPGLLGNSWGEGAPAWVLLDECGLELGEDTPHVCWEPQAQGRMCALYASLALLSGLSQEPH", "UniProt P15170, whole entry, looked up": "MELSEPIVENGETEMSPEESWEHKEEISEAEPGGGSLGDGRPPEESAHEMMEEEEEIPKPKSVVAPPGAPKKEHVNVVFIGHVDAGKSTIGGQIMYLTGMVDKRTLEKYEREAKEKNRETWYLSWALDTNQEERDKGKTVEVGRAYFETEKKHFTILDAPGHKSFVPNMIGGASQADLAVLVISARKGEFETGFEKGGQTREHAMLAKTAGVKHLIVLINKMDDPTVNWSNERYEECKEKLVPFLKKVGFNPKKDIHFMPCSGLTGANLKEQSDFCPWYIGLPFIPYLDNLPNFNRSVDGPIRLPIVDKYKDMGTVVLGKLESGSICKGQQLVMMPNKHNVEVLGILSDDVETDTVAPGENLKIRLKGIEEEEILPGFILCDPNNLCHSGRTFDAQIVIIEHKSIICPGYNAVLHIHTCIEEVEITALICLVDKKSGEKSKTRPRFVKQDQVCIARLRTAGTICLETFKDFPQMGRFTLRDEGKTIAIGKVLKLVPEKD", "UniProt Q13888": "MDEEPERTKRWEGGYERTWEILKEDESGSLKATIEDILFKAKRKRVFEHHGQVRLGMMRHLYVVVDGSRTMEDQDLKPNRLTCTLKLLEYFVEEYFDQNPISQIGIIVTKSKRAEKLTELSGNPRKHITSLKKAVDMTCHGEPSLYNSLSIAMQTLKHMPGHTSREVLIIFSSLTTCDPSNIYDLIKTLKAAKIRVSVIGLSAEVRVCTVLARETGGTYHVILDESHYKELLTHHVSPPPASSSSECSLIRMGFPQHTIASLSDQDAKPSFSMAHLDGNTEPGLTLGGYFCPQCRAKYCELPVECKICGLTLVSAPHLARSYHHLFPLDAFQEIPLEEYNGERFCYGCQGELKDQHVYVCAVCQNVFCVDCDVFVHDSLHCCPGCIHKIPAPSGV", "UniProt P29084": "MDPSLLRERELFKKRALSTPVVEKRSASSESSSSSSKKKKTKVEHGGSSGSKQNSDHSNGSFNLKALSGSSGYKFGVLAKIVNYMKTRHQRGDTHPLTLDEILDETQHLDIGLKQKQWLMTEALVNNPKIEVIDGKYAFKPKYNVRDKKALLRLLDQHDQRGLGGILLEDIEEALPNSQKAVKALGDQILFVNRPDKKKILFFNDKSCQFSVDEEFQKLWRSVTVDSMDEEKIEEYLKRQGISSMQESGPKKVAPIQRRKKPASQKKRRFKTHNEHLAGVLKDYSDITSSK"},
  "source": "the supplement of paper PMC12067093",
  "about": "“Discovery and optimisation of a covalent ligand for TRIM25 and its application to targeted protein ubiquitination” (Chemical Science, 2025)",
  "note": "Some of the results follow.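 Further: competitive profiling in live THP-1 cells: cysteine peptides tagged with an iodoacetamide desthiobiotin (IA-DTB) probe, intensity after compound treatment relative to DMSO-treated cells.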",
  "data": [
    {"compound": "Cc1cc(ccc1-c1ccccc1)C(=O)N1CCCN(CC1)C(=O)CCl [compound 10]", "assay": "probe-labelled cysteine peptide fold change vs DMSO (competition) (log2 fold change); higher = less target engagement (more negative = stronger competition)", "details": "10 µM; THP-1; incubation time: 4 h", "values": [
      {"target": "GYS1_P13807_699_ASCTSSTSGSK (UniProt P13807)", "probe-labelled cysteine peptide fold change": -0.326},
      {"target": "GTPBP8_Q8N3Z3_114_IDHAPDLPRPEVCFIGR (UniProt Q8N3Z3)", "probe-labelled cysteine peptide fold change": 0.000277},
      {"target": "GTF3A_Q92664_62_LDAHLCK (UniProt Q92664)", "probe-labelled cysteine peptide fold change": -0.0616},
      {"target": "GSTM3_P21266_178_CLDEFPNLK (UniProt P21266)", "probe-labelled cysteine peptide fold change": -0.182},
      {"target": "GTF3C3_Q9Y5Q9_239_QAIFCYTK (UniProt Q9Y5Q9)", "probe-labelled cysteine peptide fold change": 0.168},
      {"target": "GPX1_P07203_202_RFQTIDIEPDIEALLSQGPSCA (UniProt P07203)", "probe-labelled cysteine peptide fold change": -0.188},
      {"target": "GTF3C5_Q9Y5Q8_26_MVCVEYPGVVR (UniProt Q9Y5Q8)", "probe-labelled cysteine peptide fold change": 0.0288},
      {"target": "GRK2_P25098_154_QVPPDLFQPYIEEICQNLR (UniProt P25098)", "probe-labelled cysteine peptide fold change": 0.231}
    ]},
    {"compound": "Cc1cc(ccc1-c1ccccc1)C(=O)N1CCCN(CC1)C(=O)CCl [compound 10]", "assay": "probe-labelled cysteine peptide fold change vs DMSO (competition) (log2 fold change); higher = less target engagement (more negative = stronger competition)", "details": "50 µM; THP-1; incubation time: 4 h", "values": [
      {"target": "GRN_P28799_534_DVECGEGHFCHDNQTCCR (UniProt P28799)", "probe-labelled cysteine peptide fold change": -0.0628},
      {"target": "GSKIP_Q9P0R6_59_CADDVAYINVETK (UniProt Q9P0R6)", "probe-labelled cysteine peptide fold change": 0.0933},
      {"target": "HADHA_P40939_349_ALMGLYHGQVLCK (UniProt P40939)", "probe-labelled cysteine peptide fold change": -0.185},
      {"target": "GSDMD_P57764_56_CVNLSIK (UniProt P57764)", "probe-labelled cysteine peptide fold change": -0.362},
      {"target": "GTPBP1_O00178_515_YQAMVHCGSIR (UniProt O00178)", "probe-labelled cysteine peptide fold change": -0.0133},
      {"target": "HAUS2_Q9NVX0_89_CHTLQSMNNHLEAVLK (UniProt Q9NVX0)", "probe-labelled cysteine peptide fold change": -0.239},
      {"target": "GSTM3_P21266_119_LCYSSDHEK (UniProt P21266)", "probe-labelled cysteine peptide fold change": -0.143},
      {"target": "GSK3B_P49841_76_LCDSGELVAIKK (UniProt P49841)", "probe-labelled cysteine peptide fold change": -0.272},
      {"target": "H2AFY2_Q9P0M6_286_CEEQLEETIK (UniProt Q9P0M6)", "probe-labelled cysteine peptide fold change": 0.424},
      {"target": "GSPT1_P15170_453_FVKQDQVCIAR (UniProt P15170)", "probe-labelled cysteine peptide fold change": -0.5},
      {"target": "GTF3C4_Q9UKN8_93_SIAVLELICDVHNPGQDLVIHR (UniProt Q9UKN8)", "probe-labelled cysteine peptide fold change": 0.287},
      {"target": "GTF2I_P78347_903_ITINPGCVVVDGMPPGVSFK (UniProt P78347)", "probe-labelled cysteine peptide fold change": 0.0775},
      {"target": "GTF3C1_Q12789_1008_NAVIVDTTICDPHYNLAR (UniProt Q12789)", "probe-labelled cysteine peptide fold change": 0.126},
      {"target": "GTPBP4_Q9BZE4_261_AAVLYVMDLSEQCGHGLR (UniProt Q9BZE4)", "probe-labelled cysteine peptide fold change": 0.25},
      {"target": "GSDMD_P57764_268_CLHNFLTDGVPAEGAFTEDFQGLR (UniProt P57764)", "probe-labelled cysteine peptide fold change": -0.805},
      {"target": "GSPT1_P15170_381+387_GIEEEEILPGFILCDPNNLCHSGR (UniProt P15170)", "probe-labelled cysteine peptide fold change": 0.121},
      {"target": "GTF2B_Q00403_34+37_AGDMICPECGLVVGDR (UniProt Q00403)", "probe-labelled cysteine peptide fold change": 0.0895},
      {"target": "GPX1_P07203_49_VLLIENVASLUGTTVR (UniProt P07203)", "probe-labelled cysteine peptide fold change": 0.123},
      {"target": "GTF2H2_Q13888_139_AVDMTCHGEPSLYNSLSIAMQTLK (UniProt Q13888)", "probe-labelled cysteine peptide fold change": -0.00823},
      {"target": "GYS1_P13807_251_AAAHCAHVFTTVSQITAIEAQHLLK (UniProt P13807)", "probe-labelled cysteine peptide fold change": 0.221},
      {"target": "HADHA_P40939_550_CLAPMMSEVIR (UniProt P40939)", "probe-labelled cysteine peptide fold change": -0.0394},
      {"target": "GTF2E2_P29084_208_SCQFSVDEEFQK (UniProt P29084)", "probe-labelled cysteine peptide fold change": -0.0921},
      {"target": "GTPBP6_O43824_99_VCLVHPDVK (UniProt O43824)", "probe-labelled cysteine peptide fold change": -0.214},
      {"target": "GTPBP3_Q969Y2_46_CGIAVIR (UniProt Q969Y2)", "probe-labelled cysteine peptide fold change": -0.0921},
      {"target": "HACE1_Q8IYU2_172_TELLHDLVQHVSDVDVEDAMGQTALHVACQNGHK (UniProt Q8IYU2)", "probe-labelled cysteine peptide fold change": 0.0207},
      {"target": "HACL1_Q9UJ83_307_FIQVDICAEELGNNVKPAVTLLGNIHAVTK (UniProt Q9UJ83)", "probe-labelled cysteine peptide fold change": 0.19},
      {"target": "GTF3C3_Q9Y5Q9_810_GPCQESFYNLGR (UniProt Q9Y5Q9)", "probe-labelled cysteine peptide fold change": 0.191},
      {"target": "GSR_P00390_107_LGGTCVNVGCVPK (UniProt P00390)", "probe-labelled cysteine peptide fold change": -0.055},
      {"target": "HAT1_O14929_376_CLRPEELTNQMNQIEISMQHEQLEESFQELVEDYRR (UniProt O14929)", "probe-labelled cysteine peptide fold change": -0.0747},
      {"target": "GTF2H4_Q92759_16_VHLQCR (UniProt Q92759)", "probe-labelled cysteine peptide fold change": -0.293},
      {"target": "GRAMD4_Q6IC98_463_GNFHEIFNLTENERPLAVCENGWR (UniProt Q6IC98)", "probe-labelled cysteine peptide fold change": -0.546},
      {"target": "GYS1_P13807_699_ASCTSSTSGSK (UniProt P13807)", "probe-labelled cysteine peptide fold change": -0.925},
      {"target": "GTPBP8_Q8N3Z3_114_IDHAPDLPRPEVCFIGR (UniProt Q8N3Z3)", "probe-labelled cysteine peptide fold change": -0.283},
      {"target": "GTF3A_Q92664_62_LDAHLCK (UniProt Q92664)", "probe-labelled cysteine peptide fold change": -0.188},
      {"target": "GSTM3_P21266_178_CLDEFPNLK (UniProt P21266)", "probe-labelled cysteine peptide fold change": -0.0246},
      {"target": "GTF3C3_Q9Y5Q9_239_QAIFCYTK (UniProt Q9Y5Q9)", "probe-labelled cysteine peptide fold change": 0.00729},
      {"target": "GPX1_P07203_202_RFQTIDIEPDIEALLSQGPSCA (UniProt P07203)", "probe-labelled cysteine peptide fold change": 0.0483},
      {"target": "GTF3C5_Q9Y5Q8_26_MVCVEYPGVVR (UniProt Q9Y5Q8)", "probe-labelled cysteine peptide fold change": -0.122},
      {"target": "GRK2_P25098_154_QVPPDLFQPYIEEICQNLR (UniProt P25098)", "probe-labelled cysteine peptide fold change": 0.311}
    ]}
  ]
}
